Results are given in words; binding and its absence hold for the method and conditions named. Binding seen in cells or lysates may run through a third protein. Some binding calls cover weakened binding; strength is not graded here.

The target in this assay is T1, Cps2D, endogenous (Streptococcus pneumoniae D39 (endogenous in D39 lysate)) (UniProt Q9ZII6).
T1 sequence: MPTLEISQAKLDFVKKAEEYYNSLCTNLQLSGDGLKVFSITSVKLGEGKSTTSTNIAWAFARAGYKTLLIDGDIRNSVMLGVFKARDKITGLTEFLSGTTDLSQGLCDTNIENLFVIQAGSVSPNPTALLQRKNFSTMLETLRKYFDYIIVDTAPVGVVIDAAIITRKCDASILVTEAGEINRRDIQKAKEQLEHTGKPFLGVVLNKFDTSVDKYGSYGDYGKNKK
Put plainly: co-IP; S. pneumoniae D39 WT lysate (100 µg) with antibodies against SpAdK, Cps2D or AdhE (negative control), Protein A/G PLUS Agarose, 4 °C; western blotting; no exogenous Mg-ATP added. Background: In western blotting, separated proteins are transferred to a membrane and probed.

B1: GST-SpAdK (Streptococcus pneumoniae adenylate kinase, GST-tagged) (enzyme)
chain: MNLLIMGLPGAGKGTQAAKIVEQFHVAHISTGDMFRAAMANQTEMGVLAKSYIDKGELVPDEVTNGIVKERLSQDDIKETGFLLDGYPRTIEQAHALDKTLAELGIELEGIINIEVNPDSLLERLSGRIIHRVTGETFHKVFNPPVDYKEEDYYQREDDKPETVKRRLDVNIAQGEPIIAHYRAKGLVHDIEGNQDINDVFSDIEKVLTNLK
notes: adenylate kinase of Streptococcus pneumoniae (SpAdK); also called glutathione S-transferase (GST)-SpAdK; pGST-ADK; source: recombinant, purified; plasmid pGST-ADK (E. coli plasmid pGST-parallel 2); cloning and purification in the Supplementary Information
With B1, the binding result is on record as “binds”.

For the origin of these results see paper PMC6123713, “Adenylate kinase potentiates the capsular polysaccharide by modulating Cps2D in Streptococcus pneumoniae D39” (Experimental & Molecular Medicine, 2018).
